Data as given in PubChem BioAssay AID1259308 (NCATS, 2017)

- Test: 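Knock-downs that increase output of a recombinant reporter protein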 (primary screen)
- Cell system: human HEK293 embryonic kidney cells stably expressing firefly luciferase (HEK-CMV-Luc2-Hygro)
- Reagent: single siRNA against human genes, 0.8 pmol siRNA per well
- Time to read-out: 72 h
- Measured: 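Luciferase light (ONE-Glo) measured on one replicate plate set and viability (CellTiter-Glo) on the other, scaled to a negative control siRNA, with robust z-scores and luciferase per cell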
- Reading the numbers: total luciferase, z-score and total luciferase, % of control: higher = more reporter protein produced; luciferase per cell, z-score: higher = more reporter output per viable cell; viable cells, % of control: higher = more viable cells
- Active means: 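An siRNA counts as active if its total luciferase robust z-score exceeds 3; genes with two or more such siRNAs out of three were retested with fresh siRNAs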
- Calls: active = raised luciferase; inactive = no rise
Here is one part, drawn at random, of about 59,000 reagents tested. About 1,510 of them (2.6%) were called active. 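Calls use total luciferase alone and ignore viability, so some active siRNAs may act by altering cell number.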 Entries without a mark were called inactive. The numbers tell different reagents against one gene apart.

| gene | reagent | total luciferase, z-score | total luciferase, % of control | luciferase per cell, z-score | viable cells, % of control |
| --- | --- | --- | --- | --- | --- |
| DTYMK (deoxythymidylate kinase) | 1 | 1.63 | 114 | 2.49 | 66.2 |
| DTYMK (deoxythymidylate kinase) | 2 | 1.64 | 115 | 1.61 | 83.7 |
| DTYMK (deoxythymidylate kinase) | 3 | 0.202 | 85.9 | -0.0238 | 96.6 |
| LUC7L (LUC7 like) | 1 | 1.36 | 109 | 0.944 | 94.9 |
| LUC7L (LUC7 like) | 2 | -1.5 | 52 | -1.22 | 80 |
| LUC7L (LUC7 like) | 3 | 0.149 | 84.9 | -0.465 | 107 |
| SRRM2 (serine/arginine repetitive matrix 2) | 1 | 1.37 | 109 | 2.1 | 70.2 |
| SRRM2 (serine/arginine repetitive matrix 2) | 2 | 2.99 | 141 | 4.17 | 52.7 |
| SRRM2 (serine/arginine repetitive matrix 2) | 3 | -0.307 | 75.8 | 0.885 | 67.1 |
| TAS2R60 (taste 2 receptor member 60) | 1 | 0.856 | 98.9 | 1.15 | 81.6 |
| TAS2R60 (taste 2 receptor member 60) | 2 | -1.63 | 49.5 | 0.0995 | 53.9 |
| TAS2R60 (taste 2 receptor member 60) | 3 | -0.652 | 68.9 | -0.115 | 79.4 |
| NLRP5 (NLR family pyrin domain containing 5) | 1 | -0.0602 | 80.7 | 0.357 | 82.1 |
| NLRP5 (NLR family pyrin domain containing 5) | 2 | 0.54 | 92.6 | 0.611 | 88.1 |
| NLRP5 (NLR family pyrin domain containing 5) | 3 | 0.156 | 85 | -0.256 | 102 |
| ATP7A (ATPase copper transporting alpha) | 1 | 0.782 | 97.4 | 1.24 | 78.5 |
| ATP7A (ATPase copper transporting alpha) | 2 | -0.0223 | 81.4 | 0.313 | 83.8 |
| ATP7A (ATPase copper transporting alpha) | 3 | 0.669 | 95.2 | 0.276 | 98.9 |
| MTSS2 (MTSS I-BAR domain containing 2) | 1 | 1.75 | 117 | 2.43 | 68.8 |
| MTSS2 (MTSS I-BAR domain containing 2) | 2 | -0.475 | 72.4 | -0.702 | 97.4 |
| MTSS2 (MTSS I-BAR domain containing 2) | 3 | 0.324 | 88.3 | 0.644 | 83.3 |
| GUSBP5 (GUSB pseudogene 5) | 1 | 0.524 | 92.3 | 1.32 | 72.8 |
| GUSBP5 (GUSB pseudogene 5) | 2 | -1.1 | 59.9 | -0.478 | 76 |
| GUSBP5 (GUSB pseudogene 5) | 3 | 2.93 | 140 | 1.16 | 115 |
| RPLP1P5 (ribosomal protein lateral stalk subunit P1 pseudogene 5) | 1 | 2.52 | 132 | 2.35 | 79.3 |
| RPLP1P5 (ribosomal protein lateral stalk subunit P1 pseudogene 5) | 2 | 0.548 | 92.8 | 0.726 | 85.6 |
| RPLP1P5 (ribosomal protein lateral stalk subunit P1 pseudogene 5) | 3 | -1.88 | 44.5 | 1.07 | 37.6 |
| FBXO4 (F-box protein 4) | 1 | -0.754 | 66.9 | -0.0771 | 76.3 |
| FBXO4 (F-box protein 4) | 2 | 0.92 | 100 | 0.417 | 100 |
| FBXO4 (F-box protein 4) | 3 | 3 (active) | 142 | 2.75 | 76.6 |
| CD22 (CD22 molecule) | 1 | 0.591 | 93.6 | -0.0169 | 105 |
| CD22 (CD22 molecule) | 2 | -0.635 | 69.3 | -1.09 | 103 |
| CD22 (CD22 molecule) | 3 | -1.03 | 61.4 | -0.736 | 83.3 |
| TSPAN11 (tetraspanin 11) | 1 | -0.324 | 75.4 | 1.26 | 60.5 |
| TSPAN11 (tetraspanin 11) | 2 | -0.938 | 63.2 | -1.24 | 98 |
| TSPAN11 (tetraspanin 11) | 3 | 0.306 | 88 | 0.216 | 92.9 |
| GPR21 (G protein-coupled receptor 21) | 1 | 1.7 | 116 | 2.42 | 68.4 |
| GPR21 (G protein-coupled receptor 21) | 2 | 0.154 | 84.9 | -0.435 | 106 |
| GPR21 (G protein-coupled receptor 21) | 3 | 0.359 | 89 | 0.138 | 95.9 |

Active calls (from the list above):
| gene | reagent | total luciferase, z-score | total luciferase, % of control | luciferase per cell, z-score | viable cells, % of control |
| --- | --- | --- | --- | --- | --- |
| FBXO4 (F-box protein 4) | 3 | 3 (active) | 142 | 2.75 | 76.6 |
